Measurements published in publication PMC10175918 (Communications Biology, 2023).
These are yes or no findings as the source states them, for the method shown. Binding seen in cells or lysates may run through a third protein. Some binding calls cover weakened binding; strength is not graded here. Tags and fused reporters may be left off the sequences shown.

The chains behind the UniProt entries cited, without tags or fusion partners. Where a name states a change or a piece, a line headed by the entry shows the natural chain unless it says otherwise.
UniProt O95399: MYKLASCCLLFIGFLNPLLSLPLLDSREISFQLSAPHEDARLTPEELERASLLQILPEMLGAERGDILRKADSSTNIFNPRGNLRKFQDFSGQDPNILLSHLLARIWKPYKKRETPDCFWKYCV
UniProt P49407: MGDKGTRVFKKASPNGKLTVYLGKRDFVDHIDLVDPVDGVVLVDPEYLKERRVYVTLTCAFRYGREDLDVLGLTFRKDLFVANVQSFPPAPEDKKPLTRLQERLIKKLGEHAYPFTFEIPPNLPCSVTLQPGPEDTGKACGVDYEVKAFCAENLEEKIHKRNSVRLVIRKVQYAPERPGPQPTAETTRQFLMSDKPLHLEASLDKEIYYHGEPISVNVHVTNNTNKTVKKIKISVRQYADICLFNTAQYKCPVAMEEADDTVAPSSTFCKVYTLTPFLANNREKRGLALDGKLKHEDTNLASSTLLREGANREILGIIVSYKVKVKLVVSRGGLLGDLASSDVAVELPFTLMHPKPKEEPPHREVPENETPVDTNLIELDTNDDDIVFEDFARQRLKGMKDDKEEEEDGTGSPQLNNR

T1: ssHA-FLAG-UTS2R-SmBiT (human) (UniProt Q9UKP6)
T1 sequence: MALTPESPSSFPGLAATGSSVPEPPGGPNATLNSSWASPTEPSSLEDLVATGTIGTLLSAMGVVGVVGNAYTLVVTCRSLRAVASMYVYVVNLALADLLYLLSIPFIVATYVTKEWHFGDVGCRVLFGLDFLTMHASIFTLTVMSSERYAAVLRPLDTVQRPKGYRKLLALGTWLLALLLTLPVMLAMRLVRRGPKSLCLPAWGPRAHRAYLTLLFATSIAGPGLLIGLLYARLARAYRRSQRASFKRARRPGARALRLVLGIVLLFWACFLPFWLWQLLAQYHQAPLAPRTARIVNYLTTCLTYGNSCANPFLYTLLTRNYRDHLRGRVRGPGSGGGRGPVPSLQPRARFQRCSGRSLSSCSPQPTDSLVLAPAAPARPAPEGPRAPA

T2: biotin–UT2 peptide (synthetic urotensin-II peptide with an N-terminal biotin tag and a GSSG spacer) (UniProt O95399)
T2 sequence (peptide, biotin on the N-terminus): GSSGETPDCFWKYCV


How the values were obtained:
[1] = biological target: T1, ssHA-FLAG-UTS2R-SmBiT (human); experiment: condition: only cells stimulated with remdesivir instead of UT2; split reporter; NanoBiT β-arrestin recruitment in HEK293A cells with ssHA-FLAG-UTS2R-SmBiT and LgBiT-β-arrestin; stimulated with remdesivir; luminescence over 5–10 min, room temperature
[2] = biological target: T1, ssHA-FLAG-UTS2R-SmBiT (human); experiment: split reporter; NanoBiT β-arrestin recruitment in HEK293A cells with ssHA-FLAG-UTS2R-SmBiT and LgBiT-β-arrestin; stimulated with UT2; luminescence over 5–10 min, room temperature
[3] = biological target: T2, biotin–UT2 peptide (synthetic urotensin-II peptide with an N-terminal biotin tag and a GSSG spacer); experiment: pull-down; crude membrane fraction of HEK293 cells expressing FLAG-UTS2R (50 mM HEPES pH 7.5, 250 mM NaCl, 2 mM EDTA) incubated with or without remdesivir or urantide, then with biotin-UT2 overnight; solubilised with DDM; pulled down on streptavidin magnetic beads (M280); anti-FLAG western blot; only the target purified

| binding [1] | binding [2] | binding [3] | Molecule |
| --- | --- | --- | --- |
| no binding | binds |  | LgBiT-β-arrestin 1 (from UniProt P49407 1-418) |
|  |  | binds | FLAG-UTS2R (urotensin-II receptor) (receptor, UniProt Q9UKP6 1-389) MALTPESPSSFPGLAATGSSVPEPPGGPNATLNSSWASPTEPSSLEDLVATGTIGTLLSAMGVVGVVGNAYTLVVTCRSLRAVASMYVYVVNLALADLLYLLSIPFIVATYVTKEWHFGDVGCRVLFGLDFLTMHASIFTLTVMSSERYAAVLRPLDTVQRPKGYRKLLALGTWLLALLLTLPVMLAMRLVRRGPKSLCLPAWGPRAHRAYLTLLFATSIAGPGLLIGLLYARLARAYRRSQRASFKRARRPGARALRLVLGIVLLFWACFLPFWLWQLLAQYHQAPLAPRTARIVNYLTTCLTYGNSCANPFLYTLLTRNYRDHLRGRVRGPGSGGGRGPVPSLQPRARFQRCSGRSLSSCSPQPTDSLVLAPAAPARPAPEGPRAPA |
